Source: paper PMC4673491
No constants are given. Whether binding was seen depends on the method and setting. In cells and extracts the contact can be indirect. For some assays here: A result given as binding can be weak or reduced; the word gives no strength. Where a sequence is shown, tags or fusion partners need not be part of it.

Protein sequences, listed by entry. Tags and fused reporters are not part of them. Lines headed by an entry give the natural chain unless they say otherwise; changes in a name come on top.
UniProt P55085: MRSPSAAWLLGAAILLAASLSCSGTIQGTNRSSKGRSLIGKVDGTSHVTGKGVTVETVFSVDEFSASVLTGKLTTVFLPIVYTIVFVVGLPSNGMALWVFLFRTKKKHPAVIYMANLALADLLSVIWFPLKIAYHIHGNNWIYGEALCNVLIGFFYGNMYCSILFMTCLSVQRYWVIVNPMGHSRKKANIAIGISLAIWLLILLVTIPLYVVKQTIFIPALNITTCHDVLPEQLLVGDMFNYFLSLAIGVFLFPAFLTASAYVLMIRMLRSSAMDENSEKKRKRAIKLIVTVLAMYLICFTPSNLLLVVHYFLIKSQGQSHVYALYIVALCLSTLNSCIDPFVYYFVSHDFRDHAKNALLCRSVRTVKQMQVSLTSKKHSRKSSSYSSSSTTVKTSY

Assays:
[1] = target: T1, GST-PH-Vav3 (UniProt Q9UKW4); experiment: pull-down; lysates of HEK293T cells overexpressing PAR2 mutants or deletion constructs added to GST-PH-Etk/Bmx, GST-PH-Akt or GST-PH-Vav3; only the target purified
T1 sequence: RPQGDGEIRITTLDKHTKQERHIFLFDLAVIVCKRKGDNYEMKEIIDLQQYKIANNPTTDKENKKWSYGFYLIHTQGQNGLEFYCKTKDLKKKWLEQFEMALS

[2] = target: T1, GST-PH-Vav3; experiment: pull-down; GST-PH-Akt or GST-PH-Vav3 beads; lysates of cells that do not express Etk/Bmx (HEK 293T, HCT116); PAR2 detected with SAM11; only the target purified
[3] = target: T1, GST-PH-Vav3; experiment: condition: only lysates of HEK293T cells overexpressing Etk/Bmx (0.5–2 μg plasmid); pull-down; GST-PH-Akt or GST-PH-Vav3 beads; lysates of HEK293T cells overexpressing etk/bmx plasmid (0.5–2 μg); PAR2 detected with SAM11; only the target purified

hPar2 mutant H349A (from UniProt P55085) (receptor)
binding [1]: no binding

hPar2 mutant R352A (from UniProt P55085) (receptor)
binding [1]: binds

wild-type human Par2 (wt hPar2) (from UniProt P55085) (receptor)
binding [2]: binds | binding [3]: no binding | binding [1]: binds
